Laboratory results published in PubChem BioAssay AID1487 (National Center for Advancing Translational Sciences (NCATS), 2009).
Some of the results follow. These are further read-outs of the screen, such as a control signal, another cell line or another target. No call is given for them. The list favours compounds with an active or inconclusive main result. Words in brackets tell the shape of the fitted curve; partial curves, single points and poor fits give uncertain potencies.

Assay: qHTS Assay for Modulators of Lamin A Splicing
Conditions: HeLa LMNA splicing GFP/RFP minigene ratio, 48 h
Summary of the method: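 S3 HeLa stable clones carrying a lamin A-EGFP splicing minigene plus DsRed2 were seeded at 600 cells/well in Opti-MEM with 2% FBS, pin-dosed and incubated 48 h at 37°C. Acumen cytometry (488 nm) gave the GFP/RFP total-intensity ratio.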

[1] = measured here: RFP viability control channel
[2] = measured here: GFP splicing reporter channel

SMILES	AC50 [1]	AC50 [2]
O=C(Nc1n[nH]c(C(F)(F)F)n1)C1CC1	0.0282 µM [rising, full curve]	
CCOc1cc(/C=N/N=C2/NC(=O)C(CC(=O)O)S2)ccc1OS(=O)(=O)c1ccc(C)cc1 (configuration not stated)	0.0562 µM [falling, full curve]	
O=C(NCCc1ccccc1)c1cnn2c(C(F)F)cc(C3CC3)nc12	22.4 µM [rising, single point]	14.1 µM [rising, single point]
CCn1c(CNC(=O)COc2ccc(C(C)C)cc2)nnc1SCC(=O)NC1CCCCC1C (configuration not stated)	0.01 µM [rising, full curve, poor fit]	
COc1ccc(/C=N/Nc2cc(C)nc(-n3nc(C)cc3C)n2)cc1	31.6 µM [rising, single point]	31.6 µM [rising, single point]
Cc1ccc(S(=O)(=O)Nc2ccc3ncccc3c2)cc1	2.24 µM [rising, full curve]	1.26 µM [rising, full curve]
CCC(C)n1c(SCC(=O)/C(C#N)=C(\C)N)nc2ccccc2c1=O (configuration not stated)	0.501 µM [rising, full curve]	1.26 µM [rising, full curve]
Cc1ccc(-c2nc(CCNC(=O)c3ccc(C)c(C)c3)cs2)cc1	0.316 µM [falling, full curve]	0.447 µM [falling, full curve, poor fit]
CN1CCN(c2ncc3nc(-c4cn(C)c5ccccc45)c(=O)n(CCc4ccccc4)c3n2)CC1	35.5 µM [falling, single point]	25.1 µM [falling, single point]
COC(=O)[C@@]1(Cc2ccc(F)cc2)[C@H]2c3cc(C(=O)N(C)C)n(Cc4nc5ccccc5[nH]4)c3C[C@H]2CN1C(=O)c1ccccc1	35.5 µM [rising, single point]	15.8 µM [rising, single point]
O=C(/C=C/c1cccc(OCc2ccccc2)c1)c1cccnc1	35.5 µM [falling, single point]	
Cc1cccc2c1c1ccc3c(c1n2C)C(=O)C=CC3=O	35.5 µM [falling, single point]	
CCc1ccc(NC(=O)c2noc(C(C)C)c2[N+](=O)[O-])cc1	14.1 µM [falling, single point]	
CCCCC1=CC2=CC(=O)C(C)(OC(=O)CC)C(=O)C2=CN1C(CO)CO (configuration not stated)		6.31 µM [rising, single point]
COc1ccc(Br)cc1CNC(=O)CCCc1cn(C)c2ccccc12	17.8 µM [rising, single point]	
